# Results are given in words; binding and its absence hold for the method and conditions named. In cells and extracts the contact can be indirect. A yes stands for co-enrichment or nearness to the bait. Other partners may have been found.
# Protein sequences, listed by entry. Tags and fused reporters are not part of them. Lines headed by an entry give the natural chain unless they say otherwise; changes in a name come on top.
# UniProt Q9H3Y6: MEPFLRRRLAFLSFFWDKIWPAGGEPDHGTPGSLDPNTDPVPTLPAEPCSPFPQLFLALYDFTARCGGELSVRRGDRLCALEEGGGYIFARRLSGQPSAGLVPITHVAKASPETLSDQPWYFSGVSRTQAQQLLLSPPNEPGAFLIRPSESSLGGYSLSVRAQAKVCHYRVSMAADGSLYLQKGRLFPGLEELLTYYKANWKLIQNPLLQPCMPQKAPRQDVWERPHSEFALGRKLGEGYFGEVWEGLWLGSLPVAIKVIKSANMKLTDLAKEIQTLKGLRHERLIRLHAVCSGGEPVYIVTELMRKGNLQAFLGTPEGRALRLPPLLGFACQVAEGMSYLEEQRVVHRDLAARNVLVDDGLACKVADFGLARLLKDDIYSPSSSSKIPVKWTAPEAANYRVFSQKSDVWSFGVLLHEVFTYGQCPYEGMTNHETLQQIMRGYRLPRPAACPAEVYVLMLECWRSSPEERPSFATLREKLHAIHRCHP
# Biological target: 3xFLAG-SRMS K258A (human) (UniProt Q9H3Y6)
# Experiment: affinity purification with mass spectrometry; anti-FLAG beads on lysates of HEK293 cells expressing Flag-tagged SRMS (50 mM Tris pH 7.4, 150 mM NaCl, 1 mM EDTA, 1% Triton X-100), 4 h at 4 C, eluted with FLAG peptide, SDS-PAGE, mass spectrometry ('substrate trapping')
binder,measurement,value
"FK506-binding protein 51 (endogenous) (protein, UniProt Q13451 1-457) MTTDEGAKNNEESPTATVAEQGEDITSKKDRGVLKIVKRVGNGEETPMIGDKVYVHYKGKLSNGKKFDSSHDRNEPFVFSLGKGQVIKAWDIGVATMKKGEICHLLCKPEYAYGSAGSLPKIPSNATLFFEIELLDFKGEDLFEDGGIIRRTKRKGEGYSNPNEGATVEIHLEGRCGGRMFDCRDVAFTVGEGEDHDIPIGIDKALEKMQREEQCILYLGPRYGFGEAGKPKFGIEPNAELIYEVTLKSFEKAKESWEMDTKEKLEQAAIVKEKGTVYFKGGKYMQAVIQYGKIVSWLEMEYGLSEKESKASESFLLAAFLNLAMCYLKLREYTKAVECCDKALGLDSANEKGLYRRGEAQLLMNEFESAKGDFEKVLEVNPQNKAARLQISMCQKKAKEHNERDRRIYANMFKKFAEQDAKEEANKAMGKKTSEGVTNEKGTDSQAMEEEKPEGHV",binding,binds

# Reference: article PMC8202955, “The nonreceptor tyrosine kinase SRMS inhibits autophagy and promotes tumor growth by phosphorylating the scaffolding protein FKBP51” (PLoS Biology, 2021)
